Measured values from PubChem BioAssay AID248 (DTP/NCI, 2004).
The list shows only some results of the screen, not a fair sample: it gathers tests that were run many times, whatever their T/C, doses with no T/C, and many T/C values between a quarter and a half above the control. Further doses and runs are listed elsewhere. T/C: endpoint of the treated group in % of that of the vehicle group. Some doses have a count of surviving animals in place of a T/C: the source files T/C as zero there, which appears to mark a toxic dose or a test without result, not a measured value. Some survivor counts are full or nearly so, which does not show that the dose was tolerated: the source hardly ever lists a survival T/C far under the control, and the zero likely stands for such cases as well. Counts of survivors are from the toxicity check (mostly the fifth day) where no day follows; animals may have died later. Schedule codes are those of the source, read here as Q, the interval in days (D) or hours (H), X, the number of doses. Some schedule codes hold Z or #, which are not explained here. Where survival is the endpoint, the PubChem record calls one and a half times the control and up active, and a quarter to a half above the control has no call in these data; cut-offs in other NCI protocols can differ. Some T/C values carry the count of animals alive at the toxicity check (mostly the fifth day); where none is given, no animal had died by that day. Some doses were run more than once; the results are listed from low to high.

Test system: L1210 leukemia ip in BDF1 mice, survival T/C
Test: NCI In Vivo Anticancer Drug Screen. Data for tumor model L1210 Leukemia (intraperitoneal) in B6D2F1 (BDF1) mice
Conditions: T/C endpoint: mean survival time, higher T/C = longer survival
[1] = dose: 4.0 mg/kg/injection, schedule: Q01DX Z (ip), vehicle: saline

SMILES: Nc1nc(=S)c2[nH]cnc2[nH]1
- T/C (dose: 3.7 mg/kg/injection, schedule: Q01DX Z (ip), vehicle: carboxymethylcellulose (CMC)): 136 % of control
- T/C (dose: 4.0 mg/kg/injection, schedule: Q01DX006 (iv), vehicle: saline): 130 % of control
- T/C (dose: 4.0 mg/kg/injection, schedule: Q01DX Z (ip), vehicle: carboxymethylcellulose (CMC)): 128 % of control
- T/C [1]: 128 and 146 % of control
- survivor count [1]: 1 of 6
- T/C (dose: 4.0 mg/kg/injection, schedule: Q01DX Z (sc), vehicle: saline): 142 % of control
- T/C (dose: 4.9 mg/kg/injection, schedule: Q01DX009 (ip), vehicle: alkali diluted with saline): 142 % of control
- T/C (dose: 5.3 mg/kg/injection, schedule: Q04DX004 (ip), vehicle: alkali diluted with saline): 148 % of control
- T/C (dose: 5.3 mg/kg/injection, schedule: Q04DX012 (ip), vehicle: alkali diluted with saline): 136 % of control
- T/C (dose: 6.0 mg/kg/injection, schedule: Q03DX006 (ip), vehicle: saline): 135 % of control
- T/C (dose: 7.0 mg/kg/injection, schedule: Q04DX002 (ip), vehicle: alkali diluted with saline): 134 % of control
- T/C (dose: 7.4 mg/kg/injection, schedule: Q01DX009 (ip), vehicle: alkali diluted with saline): 144 % of control
- T/C (dose: 8.0 mg/kg/injection, schedule: Q01DX006 (iv), vehicle: saline): 134 % of control
- survivor count (dose: 8.0 mg/kg/injection, schedule: Q01DX Z (sc), vehicle: saline): 5 of 6
- T/C (dose: 8.0 mg/kg/injection, schedule: Q04DX006 (ip), vehicle: alkali diluted with saline): 136 % of control
- T/C (dose: 8.0 mg/kg/injection, schedule: Q04DX008 (ip), vehicle: alkali diluted with saline): 138 % of control
- T/C (dose: 8.0 mg/kg/injection, schedule: Q04DX010 (ip), vehicle: alkali diluted with saline): 140 % of control
- T/C (dose: 8.0 mg/kg/injection, schedule: Q04DX012 (ip), vehicle: alkali diluted with saline): 139 % of control
- T/C (dose: 8.8 mg/kg/injection, schedule: Q04DX003 (ip), vehicle: alkali diluted with saline): 142 % of control
- survivor count (dose: 12.0 mg/kg/injection, schedule: Q01DX Z (ip), vehicle: carboxymethylcellulose (CMC)): 6 of 6
- T/C (dose: 12.0 mg/kg/injection, schedule: Q03DX006 (ip), vehicle: saline): 127 and 146 % of control [5 of 6 alive]
- T/C (dose: 12.0 mg/kg/injection, schedule: Q04DX004 (ip), vehicle: alkali diluted with saline): 135 % of control
- T/C (dose: 12.0 mg/kg/injection, schedule: Q04DX008 (ip), vehicle: alkali diluted with saline): 141 % of control
- T/C (dose: 12.0 mg/kg/injection, schedule: Q04DX010 (ip), vehicle: alkali diluted with saline): 136 % of control
- T/C (dose: 12.0 mg/kg/injection, schedule: Q04DX012 (ip), vehicle: alkali diluted with saline): 143 % of control
- T/C (dose: 12.0 mg/kg/injection, schedule: Q07DX003 (ip), vehicle: saline): 149 % of control
- T/C (dose: 12.0 mg/kg/injection, schedule: Q07DX012 (ip), vehicle: alkali diluted with saline): 141 % of control
- T/C (dose: 13.0 mg/kg/injection, schedule: Q01DX001 (ip), vehicle: alkali diluted with saline): 147 % of control
- T/C (dose: 13.0 mg/kg/injection, schedule: Q04DX003 (ip), vehicle: alkali diluted with saline): 148 % of control
- survivor count (dose: 13.5 mg/kg/injection, schedule: Q01DX Z (ip), vehicle: carboxymethylcellulose (CMC)): 6 of 6
- T/C (dose: 14.0 mg/kg/injection, schedule: Q01DX001 (ip), vehicle: saline): 134, 140, 150, 163 % of control
- T/C (dose: 14.0 mg/kg/injection, schedule: Q04DX002 (ip), vehicle: alkali diluted with saline): 159, 169, 197, 214 % of control
- survivor count (dose: 16.0 mg/kg/injection, schedule: Q01DX Z (oral), vehicle: saline): 6 of 6
- T/C (dose: 16.0 mg/kg/injection, schedule: Q## X024 (ip), vehicle: alkali diluted with saline): 131 % of control
- T/C (dose: 18.0 mg/kg/injection, schedule: Q04DX004 (ip), vehicle: alkali diluted with saline): 138 % of control
- T/C (dose: 18.0 mg/kg/injection, schedule: Q04DX006 (ip), vehicle: alkali diluted with saline): 141 % of control
- T/C (dose: 18.0 mg/kg/injection, schedule: Q04DX008 (ip), vehicle: alkali diluted with saline): 132 % of control
- T/C (dose: 18.0 mg/kg/injection, schedule: Q04DX010 (ip), vehicle: alkali diluted with saline): 129 % of control
- T/C (dose: 18.0 mg/kg/injection, schedule: Q07DX004 (ip), vehicle: alkali diluted with saline): 149 % of control
- T/C (dose: 18.0 mg/kg/injection, schedule: Q07DX008 (ip), vehicle: alkali diluted with saline): 143 and 145 % of control
- T/C (dose: 18.0 mg/kg/injection, schedule: Q07DX010 (ip), vehicle: alkali diluted with saline): 142 % of control
